Patent publication US20110142830A1
No constants are given. Whether binding was seen depends on the method and setting. Binding seen in cells or lysates may run through a third protein. Some binding calls cover weakened binding; strength is not graded here.

Amino acid sequences for entries named in this document (tags omitted). A change or cut given only in a name is not applied to a line headed by its entry.
UniProt Q8NER1: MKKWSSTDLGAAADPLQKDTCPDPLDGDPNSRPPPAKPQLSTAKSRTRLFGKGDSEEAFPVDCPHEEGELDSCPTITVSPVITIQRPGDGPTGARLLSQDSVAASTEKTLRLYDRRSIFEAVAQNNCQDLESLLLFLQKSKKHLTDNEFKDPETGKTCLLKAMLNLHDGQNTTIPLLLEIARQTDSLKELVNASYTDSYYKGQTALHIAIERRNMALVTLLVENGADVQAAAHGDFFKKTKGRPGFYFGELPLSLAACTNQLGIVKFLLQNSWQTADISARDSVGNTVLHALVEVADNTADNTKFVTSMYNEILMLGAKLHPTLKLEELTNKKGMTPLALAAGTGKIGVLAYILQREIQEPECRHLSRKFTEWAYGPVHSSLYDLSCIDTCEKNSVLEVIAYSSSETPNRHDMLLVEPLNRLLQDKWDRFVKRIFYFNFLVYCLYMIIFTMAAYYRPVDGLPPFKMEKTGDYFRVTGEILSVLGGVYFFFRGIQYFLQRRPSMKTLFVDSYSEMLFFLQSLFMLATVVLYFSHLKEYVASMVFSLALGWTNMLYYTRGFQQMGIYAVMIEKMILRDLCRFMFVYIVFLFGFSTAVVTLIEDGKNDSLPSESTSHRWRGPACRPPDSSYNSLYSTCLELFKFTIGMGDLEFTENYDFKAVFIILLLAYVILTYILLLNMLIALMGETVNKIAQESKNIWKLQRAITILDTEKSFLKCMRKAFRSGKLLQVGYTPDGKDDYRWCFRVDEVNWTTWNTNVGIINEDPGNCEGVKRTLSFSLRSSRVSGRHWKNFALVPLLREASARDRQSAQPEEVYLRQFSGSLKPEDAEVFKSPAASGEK
UniProt P04629: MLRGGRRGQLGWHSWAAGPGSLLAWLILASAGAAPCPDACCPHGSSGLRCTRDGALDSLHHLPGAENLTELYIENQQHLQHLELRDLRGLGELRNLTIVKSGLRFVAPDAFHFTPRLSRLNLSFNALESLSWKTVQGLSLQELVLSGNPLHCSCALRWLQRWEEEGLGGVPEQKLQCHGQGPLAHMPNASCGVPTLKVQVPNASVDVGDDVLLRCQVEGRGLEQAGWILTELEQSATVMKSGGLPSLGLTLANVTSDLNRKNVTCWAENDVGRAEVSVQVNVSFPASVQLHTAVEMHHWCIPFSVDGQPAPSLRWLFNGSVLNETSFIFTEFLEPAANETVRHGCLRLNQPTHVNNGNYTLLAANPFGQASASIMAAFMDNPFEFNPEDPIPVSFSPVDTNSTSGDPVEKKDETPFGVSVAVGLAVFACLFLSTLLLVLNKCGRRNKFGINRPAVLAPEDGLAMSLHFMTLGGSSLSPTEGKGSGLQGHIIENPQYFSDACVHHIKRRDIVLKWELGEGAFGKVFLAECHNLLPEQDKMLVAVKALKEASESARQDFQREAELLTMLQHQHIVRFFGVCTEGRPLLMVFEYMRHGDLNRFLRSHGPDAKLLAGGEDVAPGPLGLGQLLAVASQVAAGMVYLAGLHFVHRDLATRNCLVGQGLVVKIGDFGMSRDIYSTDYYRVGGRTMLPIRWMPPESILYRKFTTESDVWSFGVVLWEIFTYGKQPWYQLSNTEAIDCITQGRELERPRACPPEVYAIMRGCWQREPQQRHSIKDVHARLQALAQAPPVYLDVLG
UniProt Q99523: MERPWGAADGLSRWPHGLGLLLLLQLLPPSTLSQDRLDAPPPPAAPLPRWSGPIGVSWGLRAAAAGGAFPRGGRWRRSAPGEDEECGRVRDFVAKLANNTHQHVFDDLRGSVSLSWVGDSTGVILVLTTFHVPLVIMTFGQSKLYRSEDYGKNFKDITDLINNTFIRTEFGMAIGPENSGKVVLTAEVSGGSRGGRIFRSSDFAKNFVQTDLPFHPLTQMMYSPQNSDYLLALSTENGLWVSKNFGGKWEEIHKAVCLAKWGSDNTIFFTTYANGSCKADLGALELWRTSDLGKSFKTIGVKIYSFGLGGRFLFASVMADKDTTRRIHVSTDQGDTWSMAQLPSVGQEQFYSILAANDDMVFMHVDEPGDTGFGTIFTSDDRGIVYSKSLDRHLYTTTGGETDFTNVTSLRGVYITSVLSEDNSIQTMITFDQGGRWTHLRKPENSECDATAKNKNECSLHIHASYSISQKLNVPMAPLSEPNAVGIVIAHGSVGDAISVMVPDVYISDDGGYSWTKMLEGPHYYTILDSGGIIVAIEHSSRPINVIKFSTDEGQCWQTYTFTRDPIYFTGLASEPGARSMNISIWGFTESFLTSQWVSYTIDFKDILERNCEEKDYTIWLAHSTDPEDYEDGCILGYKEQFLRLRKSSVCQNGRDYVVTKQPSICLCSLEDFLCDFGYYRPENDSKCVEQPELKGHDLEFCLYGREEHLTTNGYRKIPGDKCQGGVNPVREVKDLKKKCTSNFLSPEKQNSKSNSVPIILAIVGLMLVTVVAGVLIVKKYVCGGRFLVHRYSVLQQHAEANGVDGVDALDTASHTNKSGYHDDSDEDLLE

Tests used:
[1] = molecular target: TrpV1 (Homo sapiens (Human)) (UniProt Q8NER1); assay: co-immunoprecipitation (anti-TrpV1) from DSP-crosslinked lysates of stably transfected HEK293 cells, western blot
[2] = molecular target: TrpV1 (Homo sapiens (Human)) (UniProt Q8NER1); assay: co-immunoprecipitation, double transfected HEK293 cells (FIG. 2B)
[3] = molecular target: TrkA (Homo sapiens (Human)) (UniProt P04629); assay: co-immunoprecipitation (anti-TrkA) from DSP-crosslinked lysates of stably transfected HEK293 cells, western blot
[4] = molecular target: TrkA (Homo sapiens (Human)) (UniProt P04629); assay: co-immunoprecipitation, double transfected HEK293 cells (FIG. 2A)

Row | binding [1] | binding [2] | binding [3] | binding [4] | Substance
1 | binds | binds |  |  | TrkA (from UniProt P04629 33-796) (receptor)
2 | binds | binds | binds | binds | Sortilin (from UniProt Q99523 78-831) (receptor)
